From publication PMC10516654, “Structural and functional characterization of MrpR, the master repressor of the Bacillus subtilis prophage SPβ”
Results are given in words; binding and its absence hold for the method and conditions named. Sequences can lack the tags named with a protein.

Legend:
[1] = target: MrpR-His6 (MrpR wild-type protein, master repressor of the Bacillus subtilis prophage SPβ) (Bacillus subtilis prophage SPβ) (UniProt O34558); experiment: crystal structure; apo MrpR-His6, 480 μM, sitting drop vapor diffusion at 20°C; two MrpR molecules in the asymmetric unit; 2.9 Å; both purified
[2] = target: MrpR-His6 (MrpR wild-type protein, master repressor of the Bacillus subtilis prophage SPβ) (Bacillus subtilis prophage SPβ) (UniProt O34558); experiment: SEC; analytical SEC, S200 300/10 GL; protein at 100 μM, 100 μl injected at 4°C; 20 mM HEPES-Na (pH 6.37), 200 mM NaCl, 20 mM KCl; calibrated with standard proteins; both purified

B1: MrpR-His6 (MrpR wild-type protein, master repressor of the Bacillus subtilis prophage SPβ) (protein, UniProt O34558 2-325)
chain: FNSEIKEKYLDTLSEGMVMQMRPIFAKAEITETLYNKDIYDFTSMQILELIRSFDQTTIGSVRRTLALLSLYIDWAISYKLSKGLTNLARTISEEELYECLGDKKLYITYSELEEMENQLVNYQSKAVLRLLFEGVSGLAHSELLSLTKKQVEDAMLNGNVLTLYDSKHGERKLKVSSECLVIALNAAQETKYKLKNGKAKGQTKEVFLVENDYVVKTKRTSNKGDGQASKFVITNLITDISEFFKINFLTPNTIVRSGHLYRAYQLYKEKGVIDNSVRYQIIDDFNLRVKSKYRAVYSMQDYINEEEVNKYYAEELGLKETTI
- binding [1]: no binding
- binding [2]: no binding (tested: 100 μM)
